Structures can show the parent of a compound that is named as a salt. Some of the results follow. No stated cut-off is given here; in the data, active = 0.7 or more and inactive = the rest. Most values come without repeats; read them as rough.
These molecules were tested on MiaPaCa-2 CLSA-25 (assay: cell death relative to DMSO vehicle (fraction); higher = more cytotoxic). Conditions: 5 µM; treatment time 48 h; medium cystine 25 µM.
With `Cn1c(=O)c2c(ncn2CC(O)CO)n(C)c1=O` (centres undefined) [Diprophylline] the cell death was inactive: 0.277.
For `NC(=O)c1cccc(-c2cccc(OC(=O)NC3CCCCC3)c2)c1`, the cell death was inactive: 0.0289.
With `CC1(C)O[C@@H]2C[C@H]3[C@@H]4CCC5=CC(=O)C=C[C@]5(C)[C@H]4[C@@H](O)C[C@]3(C)[C@]2(C(=O)CO)O1` [Desonide] the cell death was inactive: 0.109.
In the case of `O=C([O-])C(Cl)Cl.[Na+]` [Sodium Dichloroacetate], the cell death is reported as inactive: 0.204.
For `C[C@H](CCC(=O)O)[C@H]1CC[C@H]2[C@@H]3C(=O)C[C@@H]4CC(=O)CC[C@]4(C)[C@H]3CC(=O)[C@]12C` [Dehydrocholic acid], the cell death was inactive: 0.281.
`COC(=O)c1ccc2c(c1)[nH]c1ncnc(NCCCN3CCCCC3)c12` was tested, and the cell death was inactive: 0.101.
With `CC(C)n1c(/C=C/C(O)CC(O)CC(=O)O)c(-c2ccc(F)cc2)c2ccccc21` (centres undefined) [Fluvastatin sodium salt] the cell death was inactive: 0.646.
With `NC(=O)N/N=C/c1ccc([N+](=O)[O-])o1` [Furacilin] the cell death was inactive: 0.364.
For `CC1=NN(c2ccccc2)C(=O)C1` [Edaravone], the cell death was inactive: 0.115.
`C1CCN2C[C@@H]3C[C@@H](CN4CCCC[C@@H]34)[C@H]2C1` [(-)-Sparteine sulfate pentahydrate] was tested, and the cell death was inactive: 0.131.
In the case of `O[C@H]1[C@H](O)[C@@H](O)[C@H](O)[C@@H](O)[C@H]1O` [Inositol], the cell death is reported as inactive: 0.072.
With `CCOC(=O)N1c2ccc(C(F)(F)F)cc2[C@@H](N(Cc2cc(C(F)(F)F)cc(C(F)(F)F)c2)C(=O)OC)C[C@H]1CC` [Torcetrapib] the cell death was inactive: 0.445.
In the case of `Cc1cc(N2C[C@@H](C)N[C@@H](C)C2)ncc1-c1ccc(-c2nc3c(ccn3C)c(=O)[nH]2)cc1`, the cell death is reported as inactive: 0.299.
`Cc1ccc(S(=O)(=O)Cc2nc(-c3ccc(C(=O)NCc4cccnc4)cc3)oc2C)cc1` was tested, and the cell death was active: 0.727.
`O=c1c(O)c(-c2ccc(O)cc2)oc2cc(O)cc(O)c12` [Kaempferol] was tested, and the cell death was inactive: 0.147.
With `COc1cc(O)c(CC=C(C)C)c(O)c1C(=O)/C=C/c1ccc(O)cc1` [Xanthohumol] the cell death was inactive: 0.0605.
`N#Cc1cc(-c2n[nH]c(-c3ccncc3)n2)ccn1` [Topiroxostat] was tested, and the cell death was inactive: 0.0714.
For `CN1CC(=O)N2[C@H](c3ccc4c(c3)OCO4)c3[nH]c4ccccc4c3C[C@@H]2C1=O` [Tadalafil], the cell death was inactive: 0.0768.
`O=C1C(O)=C([C@H]2CC[C@H](c3ccc(Cl)cc3)CC2)C(=O)c2ccccc21` [Atovaquone] was tested, and the cell death was inactive: 0.63.
In the case of `CS(=O)(=O)n1cc2c(n1)CN([C@H]1CO[C@H](c3cc(F)ccc3F)[C@@H](N)C1)C2` [Omarigliptin], the cell death is reported as inactive: 0.476.
For `CC(=O)OCC(=O)[C@@]12OC(C)(C)O[C@@H]1C[C@H]1[C@@H]3C[C@H](F)C4=CC(=O)C=C[C@]4(C)[C@@]3(F)[C@@H](O)C[C@@]12C` [Fluocinonide], the cell death was inactive: 0.195.
With `Cn1c(=O)cc(N2CCC[C@@H](N)C2)n(Cc2ccccc2C#N)c1=O` [Alogliptin Benzoate] the cell death was inactive: 0.0524.
For `N=C(N)NN` [Aminoguanidine hydrochloride], the cell death was inactive: 0.273.
With `C[C@](N)(Cc1ccc(O)c(O)c1)C(=O)O` [L-(-)-α-Methyldopa] the cell death was inactive: 0.00535.
With `CC1=C[C@]2(O)O[C@@]3(CC2=C(C)C)[C@@H](C)CC[C@@H]13` [Curcumenol] the cell death was inactive: 0.181.
In the case of `CCN(CC)C(=O)N1CCN(C)CC1` [Diethylcarbamazine citrate], the cell death is reported as inactive: 0.452.
With `COc1ccc2c(c1)c(CC(=O)OCC(=O)O)c(C)n2C(=O)c1ccc(Cl)cc1` [Acemetacin] the cell death was inactive: 0.111.
For `O=C(O)c1ccc[nH]1` [Pyrrole-2-carboxylic acid], the cell death was inactive: 0.277.
`O=C(O)CC(=O)C(=O)O` [Oxaloacetic acid] was tested, and the cell death was inactive: 0.106.
`NCCc1ccc(O)cc1` [Tyramine] was tested, and the cell death was inactive: -0.0206.
In the case of `CC(=O)c1ccc(S(=O)(=O)NC(=O)NC2CCCCC2)cc1` [Acetohexamide], the cell death is reported as inactive: 0.414.
For `NCCc1ccc(S(=O)(=O)F)cc1` [AEBSF hydrochloride], the cell death was inactive: 0.396.
For `CC1(C)[C@@H](O[C@H]2O[C@H](C(=O)O)[C@@H](O)[C@H](O)[C@H]2O[C@@H]2O[C@H](C(=O)O)[C@@H](O)[C@H](O)[C@H]2O)CC[C@]2(C)[C@H]3C(=O)C=C4[C@@H]5C[C@@](C)(C(=O)O)CC[C@]5(C)CC[C@@]4(C)[C@]3(C)CC[C@@H]12` [Glycyrrhizin], the cell death was inactive: 0.262.
For `CC(C)(C)C#Cc1cc(N(C(=O)[C@H]2CC[C@H](C)CC2)[C@H]2CC[C@H](O)CC2)c(C(=O)O)s1` [Lomibuvir], the cell death was inactive: 0.187.
For `O=C(c1c2ccccc2cc2ccccc12)N1CCC(N2CCC[C@@H](C(=O)N3CCOCC3)C2)CC1`, the cell death was inactive: 0.629.
For `Cc1cnc(Nc2ccc(N3CCN(C)CC3)cc2)nc1Nc1cccc(S(=O)(=O)NC(C)(C)C)c1`, the cell death was active: 0.779.
`COC(=O)N[C@H](C(=O)N1CCC[C@H]1c1ncc(-c2ccc(-c3ccc(-c4cnc([C@@H]5CCCN5C(=O)[C@@H](NC(=O)OC)C(C)C)[nH]4)cc3)cc2)[nH]1)C(C)C` [Daclatasvir dihydrochloride] was tested, and the cell death was inactive: 0.246.
For `COc1cc(N2CCN(C)CC2)ccc1Nc1ncc2c(n1)N(C)c1ccccc1C(=O)N2`, the cell death was inactive: 0.128.
With `O=c1cc(-c2ccc(O)c(-c3c(O)cc(O)c4c(=O)cc(-c5ccc(O)cc5)oc34)c2)oc2cc(O)cc(O)c12` [Amentoflavone] the cell death was inactive: 0.188.
